Laboratory results published in patent publication US11752210B2, “Sensitizing composition using electromagnetic waves for thermal therapy of cancers, and cancer therapy using same” (JINIS CO., LTD., priority 2013, dated 2023).

Test: Heat generation performance of apotransferrin and iron ion-bound apotransferrin aqueous solutions under electromagnetic waves (Test Example 3)
Type: physicochemical
Conditions: 100 W for 3 min

| Substance | increase in temperature of aqueous solution before and after electromagnetic waves (1 mg/ml) [°C] | increase in temperature of aqueous solution before and after electromagnetic waves (5 mg/ml) [°C] | change in temperature of aqueous solution before and after electromagnetic waves (all concentrations (0, 0.04, 0.2, 1 and 5 mg/ml)) |
| --- | --- | --- | --- |
| transferrin: iron ion-bound apotransferrin prepared by reacting ferric hydroxide solution with apotransferrin at 37° C. for 30 min | 4.4 | 10.9 | – |
| apotransferrin: apotransferrin (Sigma Aldrich, USA) having no iron ion bound thereto | – | – | less than 3 °C |
